For the assay, the target named is T1, recombinant human IGF-IR (rhIGFIR) (human, UniProt P08069 31-932, limits assumed).
T1 construct: Bought; also called immobilized IGF-IR
Nature of the assay: ELISA, periplasmic extracts on solid phase coated receptor. In general terms: In an ELISA, binding on a coated surface is turned into a signal by an enzyme label.

Chains of the proteins cited; added tags and fusions are not shown. Residues count along the entry.
UniProt P08069, residues 31-932: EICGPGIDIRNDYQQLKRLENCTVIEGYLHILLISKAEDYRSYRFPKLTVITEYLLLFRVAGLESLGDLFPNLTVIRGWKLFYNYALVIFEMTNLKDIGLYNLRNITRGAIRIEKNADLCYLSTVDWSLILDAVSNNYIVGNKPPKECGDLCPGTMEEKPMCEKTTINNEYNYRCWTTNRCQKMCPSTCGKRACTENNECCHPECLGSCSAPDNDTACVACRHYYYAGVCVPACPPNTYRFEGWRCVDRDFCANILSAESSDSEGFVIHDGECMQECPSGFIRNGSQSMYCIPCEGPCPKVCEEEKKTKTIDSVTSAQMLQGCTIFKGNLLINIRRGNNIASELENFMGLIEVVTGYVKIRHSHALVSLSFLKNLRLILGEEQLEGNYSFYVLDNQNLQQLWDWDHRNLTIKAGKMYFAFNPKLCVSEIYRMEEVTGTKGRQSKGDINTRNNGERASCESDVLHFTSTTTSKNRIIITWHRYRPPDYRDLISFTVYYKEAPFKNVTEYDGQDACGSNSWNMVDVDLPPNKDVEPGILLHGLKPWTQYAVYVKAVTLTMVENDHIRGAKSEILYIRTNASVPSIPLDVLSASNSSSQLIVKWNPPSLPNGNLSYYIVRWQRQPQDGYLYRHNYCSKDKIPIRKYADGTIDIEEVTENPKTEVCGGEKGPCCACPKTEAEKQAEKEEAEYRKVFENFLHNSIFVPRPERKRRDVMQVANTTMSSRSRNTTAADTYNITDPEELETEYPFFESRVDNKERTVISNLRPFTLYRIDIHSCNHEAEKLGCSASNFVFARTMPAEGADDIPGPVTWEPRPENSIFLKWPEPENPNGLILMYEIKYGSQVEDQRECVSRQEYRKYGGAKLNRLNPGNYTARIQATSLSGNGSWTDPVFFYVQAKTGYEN

No constants are given. Whether binding was seen depends on the method and setting. Some results given as binding are weak or reduced against the parent protein; the word gives no strength.

Experimental findings from WO2007042289A2 (dated 2007) are described below.

B1: PMP1C7 (VHH)
VHH: QVKLEESGGGLVQAGGSLRLSCVASGRTFSRTAMAWFRQAPGKEREFVATITWNSGTTRYADSVKGRFFISKDSAKNTIYLEMNSLEPEDTAVYYCAATAAAVITPTRGYYNYWGQGTQVTVSS
notes: Anti-IGF-IR Nanobody; tag not described; also called IGFRPMP1C7
As to B1, the binding entry is listed as “binds”.

B2: PMP2C7 (VHH)
VHH: QVKLEESGGGLVQPGGSLRLSCVASGRTFSNYAMGWFRQAPGQEREFVAAINWNSRSTYYADSVKGRFTISRLNARNTVYLQMNRLKPEDTAVYDCAASHDSDYGGTNANLYDYWGQGTQVTVSS
For the molecule B2, the binding result is on record as “binds”.

B3: PMP4B11 (VHH)
VHH: EVQLVESGGGLVQPGGSLRLSCAASGSIFTFNAMGWYRQAPGKQRELVAVIISGGSTHYVDSVKGRFTISRDNAKKMVYLQMNSLKPEDTAVYYCNVKKFGDYWGQGTQVTVSS
Consider B3, for which the binding result is “binds”.

B4: PMP3G7 (VHH)
VHH: DVQLVESGGGLVQAGGSLRLSCAASESISTINVMAWYRQAPGKQRELVAEITRSGRTNYVDSVKGRFTISRDNAKNTMYLQMNSLNLEDTAVYYCRTIDGSWREYWGQGTQVTVSS
Turning to B4, the binding result is “binds”.
